# Test results from the supplement of paper PMC8728848.
# The other results are listed elsewhere or left out.
# Experiments:
# Experiment in all cases: glycan array binding signal (z-score within array); higher = stronger binding
# Details in all cases: glycan notation: IUPAC condensed, linker removed
# Fuc(a1-2)Gal = biological target: Fuc(a1-2)Gal
# In short: (§1)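 The binding signal is a Z-score computed within each array. Data were drawn from 3228 arrays in the Consortium for Functional Glycomics database, restricted to those with a known protein sequence. Scores were averaged over arrays of the same protein sequence at different concentrations or buffers, and over linkers, and negative values can be taken as non-binding.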
# Fuc(a1-2)Gal(b1-3)GalNAc = biological target: Fuc(a1-2)Gal(b1-3)GalNAc
# In short: as §1
# [1] = biological target: Fuc(a1-2)Gal(b1-3)GalNAc(a1-3)[Fuc(a1-2)]Gal(b1-4)Glc
# In short: as §1
# [2] = biological target: Fuc(a1-2)Gal(b1-3)GalNAc(a1-3)[Fuc(a1-2)]Gal(b1-4)GlcNAc
# In short: as §1
# [3] = biological target: Fuc(a1-2)Gal(b1-3)GalNAc(b1-3)Gal
# In short: as §1
# [4] = biological target: Fuc(a1-2)Gal(b1-3)GalNAc(b1-3)Gal(a1-4)Gal(b1-4)Glc
# In short: as §1
# [5] = biological target: Fuc(a1-2)Gal(b1-3)GalNAc(b1-4)[Neu5Ac(a2-3)]Gal(b1-4)Glc
# In short: as §1
# Fuc(a1-2)Gal(b1-3)GlcNAc = biological target: Fuc(a1-2)Gal(b1-3)GlcNAc
# In short: as §1
# [6] = biological target: Fuc(a1-2)Gal(b1-3)GlcNAc(b1-2)Man(a1-3)[Fuc(a1-2)Gal(b1-3)GlcNAc(b1-2)Man(a1-6)]Man(b1-4)GlcNAc(b1-4)GlcNAc
# In short: as §1
# [7] = biological target: Fuc(a1-2)Gal(b1-3)GlcNAc(b1-2)Man(a1-3)[Fuc(a1-2)Gal(b1-3)GlcNAc(b1-2)Man(a1-6)]Man(b1-4)GlcNAc(b1-4)[Fuc(a1-6)]GlcNAc
# In short: as §1
# [8] = biological target: Fuc(a1-2)Gal(b1-3)GlcNAc(b1-3)Gal(b1-4)Glc
# In short: as §1
# [9] = biological target: Fuc(a1-2)Gal(b1-3)GlcNAc(b1-3)GalNAc
# In short: as §1
# [10] = biological target: Fuc(a1-2)Gal(b1-3)GlcNAc(b1-3)[Fuc(a1-2)Gal(b1-3)GlcNAc(b1-6)]GalNAc
# In short: as §1
# [11] = biological target: Fuc(a1-2)Gal(b1-3)GlcNAc(b1-3)[Gal(b1-4)GlcNAc(b1-6)]Gal(b1-4)Glc
# In short: as §1
# [12] = biological target: Fuc(a1-2)Gal(b1-3)GlcNAc(b1-3)[Neu5Ac(a2-6)Gal(b1-4)GlcNAc(b1-6)]Gal(b1-4)Glc
# In short: as §1
# [13] = biological target: Fuc(a1-2)Gal(b1-3)GlcNAc6S
# In short: as §1
# [14] = biological target: Fuc(a1-2)Gal(b1-3)[Fuc(a1-4)]GlcNAc
# In short: as §1
# [15] = biological target: Fuc(a1-2)Gal(b1-3)[Fuc(a1-4)]GlcNAc(b1-2)Man(a1-3)[Fuc(a1-2)Gal(b1-3)[Fuc(a1-4)]GlcNAc(b1-2)Man(a1-3)]Man(b1-4)GlcNAc(b1-4)GlcNAc
# In short: as §1
# [16] = biological target: Fuc(a1-2)Gal(b1-3)[Fuc(a1-4)]GlcNAc(b1-2)Man(a1-3)[Fuc(a1-2)Gal(b1-3)[Fuc(a1-4)]GlcNAc(b1-2)Man(a1-6)]Man(b1-4)GlcNAc(b1-4)[Fuc(a1-6)]GlcNAc(b1-4)[Fuc(a1-6)]GlcNAc
# In short: as §1
# [17] = biological target: Fuc(a1-2)Gal(b1-3)[Fuc(a1-4)]GlcNAc(b1-3)[Fuc(a1-3)[Gal(b1-4)]GlcNAc(b1-6)]Gal(b1-4)Glc
# In short: as §1
# [18] = biological target: Fuc(a1-2)Gal(b1-3)[Fuc(a1-4)]GlcNAc(b1-3)[Gal(b1-4)GlcNAc(b1-6)]Gal(b1-4)Glc
# In short: as §1
# Fuc(a1-2)Gal(b1-4)Glc = biological target: Fuc(a1-2)Gal(b1-4)Glc
# In short: as §1
# Fuc(a1-2)Gal(b1-4)Glc6S = biological target: Fuc(a1-2)Gal(b1-4)Glc6S
# In short: as §1
# Fuc(a1-2)Gal(b1-4)GlcNAc = biological target: Fuc(a1-2)Gal(b1-4)GlcNAc
# In short: as §1
# [19] = biological target: Fuc(a1-2)Gal(b1-4)GlcNAc(b1-2)Man
# In short: as §1
# [20] = biological target: Fuc(a1-2)Gal(b1-4)GlcNAc(b1-2)Man(a1-3)[Fuc(a1-2)Gal(b1-4)GlcNAc(b1-2)Man(a1-6)]Man(b1-4)GlcNAc(b1-4)GlcNAc
# In short: as §1
# [21] = biological target: Fuc(a1-2)Gal(b1-4)GlcNAc(b1-2)Man(a1-3)[Fuc(a1-2)Gal(b1-4)GlcNAc(b1-2)Man(a1-6)]Man(b1-4)GlcNAc(b1-4)[Fuc(a1-6)]GlcNAc
# In short: as §1
# [22] = biological target: Fuc(a1-2)Gal(b1-4)GlcNAc(b1-2)[Fuc(a1-2)Gal(b1-4)GlcNAc(b1-4)]Man(a1-3)[Fuc(a1-2)Gal(b1-4)GlcNAc(b1-2)Man(a1-6)]Man(b1-4)GlcNAc(b1-4)GlcNAc
# In short: as §1
# [23] = biological target: Fuc(a1-2)Gal(b1-4)GlcNAc(b1-3)Gal(b1-4)GlcNAc
# In short: as §1
# [24] = biological target: Fuc(a1-2)Gal(b1-4)GlcNAc(b1-3)Gal(b1-4)GlcNAc(b1-2)Man(a1-3)[Fuc(a1-2)Gal(b1-4)GlcNAc(b1-3)Gal(b1-4)GlcNAc(b1-2)Man(a1-6)]Man(b1-4)GlcNAc(b1-4)GlcNAc
# In short: as §1
binder,measurement,setting,value
"YghJ (Escherichia coli), E3PJ90 (protein) MNKKFKYKKSLLAAILSATLLAGCDGGGSGSSSDTPPVDSGTGSLPEVKPDPTPNPEPTPEPTPDPEPTPEPIPDPEPTPEPEPEPVPTKTGYLTLGGSQRVTGATCNGESSDGFTFKPGEDVTCVAGNTTIATFNTQSEAARSLRAVEKVSFSLEDAQELAGSDDKKSNAVSLVTSSNSCPANTEQVCLTFSSVIESKRFDSLYKQIDLAPEEFKKLVNEEVENNAATDKAPSTHTSPVVPVTTPGTKPDLNASFVSANAEQFYQYQPTEIILSEGRLVDSQGYGVAGVNYYTNSGRGVTGENGEFSFSWGEAISFGIDTFELGSVRGNKSTIALTELGDEVRGANIDQLIHRYSTTGQNNTRVVPDDVRKVFAEYPNVINEIINLSLSNGATLGEGEQVVNLPNEFIEQFNTGQAKEIDTAICAKTDGCNEARWFSLTTRNVNDGQIQGVINKLWGVDTNYKSVSKFHVFHDSTNFYGSTGNARGQAVVNISNAAFPILMARNDKNYWLAFGEKRAWDKNELAYITEAPSIVRPENVTRETASFNLPFISLGQVGDGKLMVIGNPHYNSILRCPNGYSWNGGVNKDGQCTLNSDPDDMKNFMENVLRYLSNDRWLPDAKSSMTVGTNLETVYFKKHGQVLGNSAPFAFHKDFTGITVKPMTSYGNLNPDEVPLLILNGFEYVTQWGSDPYSIPLRADTSKPKLTQQDVTDLIAYMNKGGSVLIMENVMSNLKEESASGFVRLLDAAGLSMALNKSVVNNDPQGYPDRVRQRRSTPIWVYERYPAVDGKPPYTIDDTTKEVIWKYQQENKPDDKPKLEVASWQEEVEGKQVTQFAFIDEADHKTPESLAAAKQRILDAFPGLEVCKDSDYHYEVNCLEYRPGTDVPVTGGMYVPQYTQLDLSADTAKAMLQAADLGTNIQRLYQHELYFRTNGRQGERLNSVDLERLYQNMSVWLWNETKYRYEEGKEDELGFKTFTEFLNCYTNNAYVGTQCSAELKKSLIDNKMIYGEESSKAGMMNPSYPLNYMEKPLTRLMLGRSWWDLNIKVDVEKYPGVVNTNGETVTQNINLYSAPTKWFAGNMQSTGLWAPAQQEVSIESKSTVPVTVTVALADDLTGREKHEVSLNRPPRVTKTYDLKANDKVTFKVPYGGLIYIKGDSKEVQSADFTFTGVVKAPFYKDGKWQHDLNSPAPLGELESASFVYTTPKKNLNASNYTGGLEQFANDLDTFASSMNDFYGRDSEDGKHRMFTYKNLPGHKHRFANDVQISIGDAHSGYPVMNSSFSPNSTTLPTTPLNDWLIWHEVGHNAAETPLTVPGATEVANNVLALYMQDRYLGKMNRVADDITVAPEYLEESNGQAWARGGAGDRLLMYAQLKEWAEKNFDIKKWYPDGTPLPEFYSEREGMKGWNLFQLMHRKARGDEVSNDKFGGKNYCAESNGNAADTLMLCASWVAQTDLSEFFKKWNPGANAYQLPGASEMSFEGGVSQSAYNTLASLDLPKPEQGPETINQVTEHKMSAE",glycan array binding signal (z-score),Fuc(a1-2)Gal,-0.206
same,glycan array binding signal (z-score),Fuc(a1-2)Gal(b1-3)GalNAc,0.006
same,glycan array binding signal (z-score),[1],-1.48
same,glycan array binding signal (z-score),[2],-1.47
same,glycan array binding signal (z-score),[3],-0.787
same,glycan array binding signal (z-score),[4],-0.141
same,glycan array binding signal (z-score),[5],-0.92
same,glycan array binding signal (z-score),Fuc(a1-2)Gal(b1-3)GlcNAc,0.05
same,glycan array binding signal (z-score),[6],-0.872
same,glycan array binding signal (z-score),[7],-0.092
same,glycan array binding signal (z-score),[8],-0.678
same,glycan array binding signal (z-score),[9],-0.429
same,glycan array binding signal (z-score),[10],1.43
same,glycan array binding signal (z-score),[11],1.78
same,glycan array binding signal (z-score),[12],0.101
same,glycan array binding signal (z-score),[13],2.47
same,glycan array binding signal (z-score),[14],0.02
same,glycan array binding signal (z-score),[15],1.41
same,glycan array binding signal (z-score),[16],1.56
same,glycan array binding signal (z-score),[17],0.131
same,glycan array binding signal (z-score),[18],-0.627
same,glycan array binding signal (z-score),Fuc(a1-2)Gal(b1-4)Glc,0.764
same,glycan array binding signal (z-score),Fuc(a1-2)Gal(b1-4)Glc6S,0.048
same,glycan array binding signal (z-score),Fuc(a1-2)Gal(b1-4)GlcNAc,-0.065
same,glycan array binding signal (z-score),[19],1.68
same,glycan array binding signal (z-score),[20],-0.25
same,glycan array binding signal (z-score),[21],-0.129
same,glycan array binding signal (z-score),[22],0.767
same,glycan array binding signal (z-score),[23],0.111
same,glycan array binding signal (z-score),[24],0.821
